PubChem BioAssay AID1224830, NIAID, 2016
Shown is an unselected part of about 18,000 reagents. About 2,900 of all reagents (16%) were called active. 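Calls are made per well; low scores hint the gene aids the LPS response, high scores that it dampens it.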 Repeated entries: four replicate wells of each siRNA pool. Reagent sequences are not shown.

Screen: 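Host factors that control LPS-induced TNF expression in human macrophages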 (primary screen)
Cell system: human THP-1 monocytic leukaemia cells, TNF dual-luciferase reporter clone, PMA-differentiated to macrophage-like cells
Knock-down reagent: siRNA pool against human genes, 50 nM
Duration: LPS for 4 h, given about 3 days after siRNA transfection
Conditions: bacterial LPS (TLR4 ligand), 10 ng/ml
Measurement: 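TNF firefly reporter luminescence divided by renilla, normalised to the plate median, then turned into a robust z-score for each replicate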
Direction: TNF reporter robust z-score: higher = stronger TNF reporter response to LPS
Call rule: 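Each well counts as active if its z-score is over 2.8 or under -1.5; controls are left without a call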

| gene knocked down | TNF reporter robust z-score | activity call |
| --- | --- | --- |
| SLC40A1 | 1.05 | inactive |
| SLC40A1 | 1.4 | inactive |
| SLC40A1 | -0.58 | inactive |
| SLC40A1 | 2.74 | inactive |
| EIF4A2 (eukaryotic translation initiation factor 4A2) | 2.93 | active |
| EIF4A2 (eukaryotic translation initiation factor 4A2) | 3.84 | active |
| EIF4A2 (eukaryotic translation initiation factor 4A2) | 1.77 | inactive |
| EIF4A2 (eukaryotic translation initiation factor 4A2) | 1.57 | inactive |
| SBNO1 (strawberry notch homolog 1) | 0.49 | inactive |
| SBNO1 (strawberry notch homolog 1) | -1.17 | inactive |
| SBNO1 (strawberry notch homolog 1) | -0.92 | inactive |
| SBNO1 (strawberry notch homolog 1) | -0.59 | inactive |
| GAA (alpha glucosidase) | 1.05 | inactive |
| GAA (alpha glucosidase) | -0.13 | inactive |
| GAA (alpha glucosidase) | -0.14 | inactive |
| GAA (alpha glucosidase) | 0.07 | inactive |
| MAP3K11 (mitogen-activated protein kinase kinase kinase 11) | -0.59 | inactive |
| MAP3K11 (mitogen-activated protein kinase kinase kinase 11) | -0.68 | inactive |
| MAP3K11 (mitogen-activated protein kinase kinase kinase 11) | -0.41 | inactive |
| MAP3K11 (mitogen-activated protein kinase kinase kinase 11) | -0.78 | inactive |
| ARHGAP11A (Rho GTPase activating protein 11A) | 2.22 | inactive |
| ARHGAP11A (Rho GTPase activating protein 11A) | 0.75 | inactive |
| ARHGAP11A (Rho GTPase activating protein 11A) | 2.86 | active |
| ARHGAP11A (Rho GTPase activating protein 11A) | -0.63 | inactive |
| GOLPH3 (golgi phosphoprotein 3) | 0.73 | inactive |
| GOLPH3 (golgi phosphoprotein 3) | 0.38 | inactive |
| GOLPH3 (golgi phosphoprotein 3) | 0.21 | inactive |
| GOLPH3 (golgi phosphoprotein 3) | 1.13 | inactive |
| PTK6 (protein tyrosine kinase 6) | -1.28 | inactive |
| PTK6 (protein tyrosine kinase 6) | -1.17 | inactive |
| PTK6 (protein tyrosine kinase 6) | -1.25 | inactive |
| PTK6 (protein tyrosine kinase 6) | -0.87 | inactive |
| PRND (prion like protein doppel) | -2.11 | active |
| PRND (prion like protein doppel) | -2.06 | active |
| PRND (prion like protein doppel) | -2.04 | active |
| SURF1 (SURF1 cytochrome c oxidase assembly factor) | -0.51 | inactive |
| SURF1 (SURF1 cytochrome c oxidase assembly factor) | 0.03 | inactive |
| SURF1 (SURF1 cytochrome c oxidase assembly factor) | -0.59 | inactive |
| SURF1 (SURF1 cytochrome c oxidase assembly factor) | -1 | inactive |
| CDH2 (cadherin 2) | 0.43 | inactive |
| CDH2 (cadherin 2) | -0.17 | inactive |
| CDH2 (cadherin 2) | 0.65 | inactive |
| CDH2 (cadherin 2) | -0.03 | inactive |
| IGBP1 (immunoglobulin binding protein 1) | -0.98 | inactive |
| IGBP1 (immunoglobulin binding protein 1) | -0.89 | inactive |
| IGBP1 (immunoglobulin binding protein 1) | 0.96 | inactive |
| IGBP1 (immunoglobulin binding protein 1) | -0.1 | inactive |

12 entries from above in another layout.
{"gene knocked down": "GAA (alpha glucosidase)", "TNF reporter robust z-score": 1.05, "activity call": "inactive"}
{"gene knocked down": "GAA (alpha glucosidase)", "TNF reporter robust z-score": -0.13, "activity call": "inactive"}
{"gene knocked down": "GAA (alpha glucosidase)", "TNF reporter robust z-score": -0.14, "activity call": "inactive"}
{"gene knocked down": "GAA (alpha glucosidase)", "TNF reporter robust z-score": 0.07, "activity call": "inactive"}
{"gene knocked down": "MAP3K11 (mitogen-activated protein kinase kinase kinase 11)", "TNF reporter robust z-score": -0.59, "activity call": "inactive"}
{"gene knocked down": "MAP3K11 (mitogen-activated protein kinase kinase kinase 11)", "TNF reporter robust z-score": -0.68, "activity call": "inactive"}
{"gene knocked down": "MAP3K11 (mitogen-activated protein kinase kinase kinase 11)", "TNF reporter robust z-score": -0.41, "activity call": "inactive"}
{"gene knocked down": "MAP3K11 (mitogen-activated protein kinase kinase kinase 11)", "TNF reporter robust z-score": -0.78, "activity call": "inactive"}
{"gene knocked down": "ARHGAP11A (Rho GTPase activating protein 11A)", "TNF reporter robust z-score": 2.22, "activity call": "inactive"}
{"gene knocked down": "ARHGAP11A (Rho GTPase activating protein 11A)", "TNF reporter robust z-score": 0.75, "activity call": "inactive"}
{"gene knocked down": "ARHGAP11A (Rho GTPase activating protein 11A)", "TNF reporter robust z-score": 2.86, "activity call": "active"}
{"gene knocked down": "ARHGAP11A (Rho GTPase activating protein 11A)", "TNF reporter robust z-score": -0.63, "activity call": "inactive"}

Next records:
| gene knocked down | TNF reporter robust z-score | activity call |
| --- | --- | --- |
| KLF17 (KLF transcription factor 17) | 0.17 | inactive |
| KLF17 (KLF transcription factor 17) | 4.32 | active |
| KLF17 (KLF transcription factor 17) | 1.86 | inactive |
| KLF17 (KLF transcription factor 17) | 0.29 | inactive |
| LINC02913 (long independently transcribed non-coding RNA 2913) | -0.89 | inactive |
| LINC02913 (long independently transcribed non-coding RNA 2913) | -0.75 | inactive |
| LINC02913 (long independently transcribed non-coding RNA 2913) | -1.01 | inactive |
| LINC02913 (long independently transcribed non-coding RNA 2913) | -0.91 | inactive |
| PLD2 (phospholipase D2) | 0.68 | inactive |
| PLD2 (phospholipase D2) | 0.82 | inactive |
| PLD2 (phospholipase D2) | 0.51 | inactive |
| PLD2 (phospholipase D2) | -0.8 | inactive |
| DEDD2 (death effector domain containing 2) | -0.24 | inactive |
| DEDD2 (death effector domain containing 2) | 0.03 | inactive |
| DEDD2 (death effector domain containing 2) | -0.84 | inactive |
| DEDD2 (death effector domain containing 2) | 1.28 | inactive |
| DHX15 (DEAH-box helicase 15) | -0.12 | inactive |
| DHX15 (DEAH-box helicase 15) | 0.42 | inactive |
| DHX15 (DEAH-box helicase 15) | 0.11 | inactive |
| DHX15 (DEAH-box helicase 15) | 1.11 | inactive |
| KREMEN1 (kringle containing transmembrane protein 1) | 0.96 | inactive |
| KREMEN1 (kringle containing transmembrane protein 1) | 1.17 | inactive |
| KREMEN1 (kringle containing transmembrane protein 1) | -0.18 | inactive |
| KREMEN1 (kringle containing transmembrane protein 1) | 3.59 | active |
| PTGR2 (prostaglandin reductase 2) | -1.48 | inactive |
| PTGR2 (prostaglandin reductase 2) | -0.96 | inactive |
| PTGR2 (prostaglandin reductase 2) | -1.24 | inactive |
| PTGR2 (prostaglandin reductase 2) | -0.24 | inactive |
